Measurements as given in patent US9120094B2, “Polymerization of bis[3-(diethoxyphosphoryl)propyl]diallylammonium chloride” (King Fahd University of Petroleum and Minerals, priority 2013, dated 2015).
Some of these results come from one statement about several compounds together.

Assay: Antiscalant screening experiments based on visual inspection
Settings: same conditions as PZA 7 test

C=CC[N+](CC=C)(CCCP(=O)(OCC)OCC)CCCP(=O)(OCC)OCC.[Cl-] [compound 4, N-allyl-N,N-bis[3-(diethoxyphosphoryl)propyl]prop-2-en-1-aminium chloride]
time until the system becomes cloudy (no effective inhibition): ≤ 1 h
